Laboratory results reported in ChEMBL document CHEMBL3045015, “Synthesis and physiological evaluation of new N-nitroso-2,6-dicarbethoxy-3,5-diaryltetrahydro-1,4-thiazine-1,1-dioxides” (Med Chem Res, 2012).

Test system: Candida albicans
Assay: Antifungal activity against Candida albicans MTCC 227 at 10 ug/ml by disk diffusion method
Format: functional

For NYSTATIN, which inhibition zone (IZ) is on record?
The inhibition zone (IZ) was 19 mm.
